Assay results as given in PubChem BioAssay AID743255 (National Center for Advancing Translational Sciences (NCATS), 2014).
The campaign covered roughly 390,000 compounds. About 910 (0.23%) were called active. Inconclusive means that the source gave no clear call. Such entries were picked first, then a sample of the others. Calls come from the whole dose curve; as a rule, active = well fitted inhibition curve with a large enough effect; inconclusive = small, poorly fitted or top-dose-only effect; inactive = no such curve, though single readings can be large or run the other way. A potency beside an inconclusive call is a rough fit, not a confirmed value.

Sequences of proteins named here, by UniProt entry; tags and fusion partners are left off. A change or cut given only in a name is not applied to a line headed by its entry.
UniProt O94782: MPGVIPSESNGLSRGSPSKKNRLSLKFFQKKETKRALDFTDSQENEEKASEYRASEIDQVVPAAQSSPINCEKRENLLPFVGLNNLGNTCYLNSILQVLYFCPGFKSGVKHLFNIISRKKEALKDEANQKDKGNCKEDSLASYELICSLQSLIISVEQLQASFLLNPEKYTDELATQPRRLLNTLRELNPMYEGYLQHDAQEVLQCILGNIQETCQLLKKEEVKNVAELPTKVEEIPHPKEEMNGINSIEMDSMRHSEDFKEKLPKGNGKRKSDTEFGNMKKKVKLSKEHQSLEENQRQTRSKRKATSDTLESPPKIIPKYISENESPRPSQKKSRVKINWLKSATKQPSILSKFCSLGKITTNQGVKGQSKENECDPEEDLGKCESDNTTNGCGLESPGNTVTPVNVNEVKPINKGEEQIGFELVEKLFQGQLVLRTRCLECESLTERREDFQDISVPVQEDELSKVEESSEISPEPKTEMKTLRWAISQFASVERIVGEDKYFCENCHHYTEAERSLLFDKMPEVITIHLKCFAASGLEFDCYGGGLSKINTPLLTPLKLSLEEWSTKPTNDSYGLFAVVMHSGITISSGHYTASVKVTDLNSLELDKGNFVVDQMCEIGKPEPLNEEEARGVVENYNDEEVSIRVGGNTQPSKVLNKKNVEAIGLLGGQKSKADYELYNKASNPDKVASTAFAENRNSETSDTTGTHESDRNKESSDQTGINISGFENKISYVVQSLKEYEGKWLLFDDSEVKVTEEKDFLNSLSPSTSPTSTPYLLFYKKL

target: Ubiquitin carboxyl-terminal hydrolase 1 (Homo sapiens) (UniProt O94782); assay: Inhibitors of USP1/UAF1: Primary Screen; settings: recombinant USP1/UAF1, Ub-Rhodamine cleavage fluorescence; series mostly up to 57.1 µM; note: nearly all actives have a fitted effect of over 60% in size
Procedure, shortened: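 1 nM enzyme complex + cpd, 15 min RT; start with Ub-Rho 150nM final; kinetic fluorescence ex 480/em 540, 6 reads q60 s. Buffer 50mM HEPES pH 7.8, 0.5mM EDTA, 0.1 mg/ml BSA, 1mM TCEP, 0.01% Tween-20.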
Potency is the fitted concentration of half-maximal effect.

Potency, inconclusive:
COc1ccc(N2CCN(C(=O)c3nn(C)c4c3CS(=O)(=O)c3ccccc3-4)CC2)cc1 10 µM [inhibitor, partial curve]
CC(C)C(NC(=O)c1ccc(C(C)(C)C)cc1)C(=O)OCC(=O)NC(=O)Cc1ccccc1 (stereo not drawn) 50.1 µM [inhibitor, partial curve, poor fit]
NS(=O)(=O)CCCc1ccccc1 0.251 µM [inhibitor, full curve, poor fit]
Cc1ccc(S(=O)(=O)N2CCCC(C(=O)NCCc3ccc(Cl)cc3)C2)cc1 (stereo not drawn) 0.141 µM [inhibitor, full curve, poor fit]
CCOC(=O)c1ccc(NC(=O)CCc2c(C)n(CC)c3cc(-c4ccccc4OC)nn3c2=O)cc1 3.55 µM [inhibitor, full curve]
Cc1ccsc1C(=O)N1CCCC(N2CCN(c3cccc(Cl)c3)CC2)C1 (stereo not drawn) 15.8 µM [inhibitor, partial curve]
CCCc1cc(-c2nc(-c3ccc(C)cc3)cs2)ccn1 39.8 µM [inhibitor, partial curve]
COc1ccc2[nH]c3c(c2c1)CCN1C(=O)N([C@@H](C)C(=O)NCCc2ccc(OC)c(OC)c2)C(=O)[C@]31C 4.47 µM [inhibitor, single point]
COc1ccccc1Nc1nn2c(=O)c3ccc(C(=O)Nc4ccc(F)cc4)cc3nc2s1 0.794 µM [inhibitor, full curve]
CCn1c2ccccc2c2nnc(NN)nc21 39.8 µM [inhibitor, partial curve]
CSc1nc(-c2ccccc2)nc(N2CCCC2)c1C(C)=O 25.1 µM [inhibitor, partial curve]
Cc1ccc(C)c(N2CCN(C(=O)CCC(=O)Nc3nnc(C(F)(F)F)s3)CC2)c1 50.1 µM [inhibitor, partial curve, poor fit]
CCCCCCCCc1nnc(N)s1 39.8 µM [inhibitor, partial curve]
COc1ccccc1NC(=O)CSc1nnc(-c2nonc2NC(C)=O)n1-c1ccccc1 1.78 µM [inhibitor, full curve, poor fit]
Cc1ccc([N+](=O)[O-])cc1N=C(c1cccc(Br)c1)N1CCOCC1 2.24 µM [inhibitor, partial curve]
Nc1c(C2CCCCC2)c(=O)on1C(=O)c1ccccc1 6.31 µM [inhibitor, single point]
CCC(CC)C(=O)Nc1ccc(C(=O)Nc2cc(C)on2)cc1 5.01 µM [inhibitor, partial curve]
Cc1ccc(-n2c3nc(=O)[nH]c(=O)c-3cc3cc([N+](=O)[O-])ccc32)cc1C 25.1 µM [inhibitor, partial curve]
CSc1nsc(/C=C/Nc2ccc(C)c(C)c2)c1C#N 35.5 µM [inhibitor, partial curve]
COc1ccc(C(=O)N2CCCC(C(=O)O)C2)c2ccccc12 (stereo not drawn) 56.2 µM [inhibitor, single point]
Cc1cccc(NC(=O)CN2C(=O)COc3ccc(S(=O)(=O)N4CCC(C)CC4)cc32)c1C 0.891 µM [inhibitor, full curve, poor fit]
CCOC(=O)c1c(C)c(-c2ccccc2)n(CC(=O)Nc2cccc(F)c2)c1C 7.94 µM [inhibitor, full curve, poor fit]
CCC(=O)N1CCc2cc(S(=O)(=O)NC(C(=O)NCCc3ccc(Cl)cc3)C(C)C)ccc21 (stereo not drawn) 6.31 µM [inhibitor, partial curve]
Cc1ccc(Cc2c(C)nn(-c3nc(C)c(C(=O)N4CCCCC4C)s3)c2C)cc1 (stereo not drawn) 17.8 µM [inhibitor, partial curve, poor fit]
COc1ccc(-c2cc(OC(=O)c3ccc(F)cc3)c3c(C)oc(C)c3c(=O)c2)cc1OC 17.8 µM [inhibitor, partial curve, poor fit]
Cc1c(Br)c([N+](=O)[O-])nn1C(C)C(=O)NCc1cccs1 (stereo not drawn) 7.94 µM [inhibitor, partial curve]
Cc1ccc(C(=O)CSC2=NC(N)=C(C#N)C3(CCCCC3)C2C(N)=O)cc1 (stereo not drawn) 44.7 µM [inhibitor, partial curve]
O=C(COCc1cc(-c2cccs2)on1)NCc1ccccc1Cl 0.794 µM [inhibitor, full curve, poor fit]
O=C(N/N=C/c1ccncc1)c1cccc(NC(=O)c2ccc(Cl)cc2)c1 44.7 µM [inhibitor, partial curve]
CCCn1nnnc1NCc1ccccc1C 14.1 µM [inhibitor, partial curve, poor fit]
CCCSC1=C(C#N)C2(CCCCC2)C(C#N)=C(N)N1 50.1 µM [inhibitor, partial curve, poor fit]
COc1cc(Nc2nc(SCc3cccc(Cl)c3)nc3ccccc23)cc(OC)c1 0.398 µM [inhibitor, full curve, poor fit]
O=C(CSc1ccccn1)Nc1ccc2c(c1)OCCO2 50.1 µM [inhibitor, single point]
CC(=O)c1ccc(NC(=O)C2=CC(c3cccs3)=NS(=O)(=O)N2C)cc1 50.1 µM [inhibitor, partial curve, poor fit]
CC[C@@]12C(=O)N(c3ccc(OC)cc3)C(=O)N1[C@H](c1ccc(Cl)cc1)[C@@H]1C(=O)N(C3CCCCC3)C(=O)[C@@H]12 50.1 µM [inhibitor, partial curve, poor fit]
COc1ccc(-c2cn3nc(SCC(=O)NCC4CCCO4)ccc3n2)cc1 (stereo not drawn) 35.5 µM [inhibitor, partial curve]
Cc1cc(C)n(-c2nnc(Nc3ccc(C(C)C)cc3)c3ccccc23)n1 35.5 µM [inhibitor, partial curve]
Cc1ccc(OCC(=O)NC(=S)Nc2ccc3c4c(cccc24)CC3)cc1 31.6 µM [inhibitor, single point]
CC(C)CCN(C(=S)Nc1cccc(C(F)(F)F)c1)C(C)c1ccccn1 (stereo not drawn) 50.1 µM [inhibitor, partial curve, poor fit]
COc1ccc2c(c1)Cc1sc(NC(=O)c3cccc(F)c3)nc1-2 39.8 µM [inhibitor, partial curve]
O=C(NNC(=O)c1ccc([N+](=O)[O-])cc1)c1ccc(NS(=O)(=O)c2cccs2)cc1 4.47 µM [inhibitor, partial curve]
COc1ccc(-c2noc3c2-c2nc(-c4ccc(C)cc4)sc2CC3)cc1 3.55 µM [inhibitor, full curve]
COc1ccccc1C1CC(c2ccccc2)=NN1C(=S)Nc1ccccc1 (stereo not drawn) 6.31 µM [inhibitor, full curve]
O=C(O)c1cc(O)c2c(c1)C(=O)c1cccc(O)c1C2=O 39.8 µM [inhibitor, partial curve, poor fit]
COc1ccc(-c2nc3ccc(C)cn3c2NCc2ccccc2)cc1SC1CCCCC1 31.6 µM [inhibitor, partial curve]

Arranged by molecular weight (low to high): 4 of the compounds above.
Potency, inconclusive:
Cc1ccc(-n2c3nc(=O)[nH]c(=O)c-3cc3cc([N+](=O)[O-])ccc32)cc1C 25.1 µM [inhibitor, partial curve]
CC(=O)c1ccc(NC(=O)C2=CC(c3cccs3)=NS(=O)(=O)N2C)cc1 50.1 µM [inhibitor, partial curve, poor fit]
COc1ccc(-c2cc(OC(=O)c3ccc(F)cc3)c3c(C)oc(C)c3c(=O)c2)cc1OC 17.8 µM [inhibitor, partial curve, poor fit]
CCC(=O)N1CCc2cc(S(=O)(=O)NC(C(=O)NCCc3ccc(Cl)cc3)C(C)C)ccc21 (stereo not drawn) 6.31 µM [inhibitor, partial curve]

Following part:

Potency, active:
O=C(O)c1cccc(NC2=C(N3CCOCC3)C(=O)c3ccccc3C2=O)c1 31.6 µM

Potency, inactive:
Cn1c(N2CCCCC2)nc2c1c(=O)n(Cc1cccc(Br)c1)c(=O)n2C
Cc1ccc(NC(=O)Cn2cnc3ccccc32)cc1C
Cc1ccc(C(=O)N2CCN(c3ccc([N+](=O)[O-])c(NCc4cccnc4)c3)CC2)cc1
O=C(Nc1nc2c(s1)CCCC2)Oc1ccccc1
CCOC(=O)c1cnc2c(C)cc(C)cc2c1NCCCN1CCOCC1
Cc1nn(-c2ccc(C(=O)O)cc2)c(N)c1-c1ccccc1
CC(=O)N(C)c1ccc(NC(=S)Nc2ccccc2)cc1
Cc1cccc(-c2nc(CCNC(=O)c3ccccc3Br)cs2)c1
Cc1ccc(S(=O)(=O)N(CC(=O)N2CCc3ccccc3C2)c2ccc(C)c(C)c2)cc1
CCCC(=O)N(CCN1CCOCC1)c1nc2c(C)ccc(C)c2s1
O=C(Nc1ccccc1N1CCCC1)c1cccnc1
O=C(CN(Cc1ccccc1)S(=O)(=O)c1ccc2c(c1)OCCO2)Nc1ccc2c(c1)OCCO2
Cc1[nH]n(-c2ccc([N+](=O)[O-])cc2)c(=O)c1C=NCCc1c(C)[nH]c2ccccc12
Cc1ccc(OCC(=O)NCC2CCCO2)c(C)c1 (stereo not drawn)
c1ccc(-c2nnnn2-c2ccccc2)cc1
Cc1ccc(NC(=O)NCC2CCN(Cc3cccc(Cl)c3)CC2)cc1Cl
Cc1ccc(/C=N/Nc2nncc(-c3ccccc3)n2)o1
CC(NC(=O)c1cccc(NC(=O)c2nsc3ccccc23)c1)c1ccccc1 (stereo not drawn)
CCOC(=O)c1cc2cc([N+](=O)[O-])ccc2oc1=O
N#CC(C#N)=C1C=CC=CN1/C(=C\c1ccco1)C(=O)c1ccc(Br)cc1
CC1=C(C(=O)NCc2ccc(C)cc2)C2(CCCCC2)OC1=O
COc1cccc(C(=O)NCCNC(=O)c2cnccn2)c1
